Data taken from PubChem BioAssay AID2551 (National Center for Advancing Translational Sciences (NCATS), 2010).
Among all 310,000 compounds or so, about 17,000 (5.5%) were called active. Inconclusive results, whose numbers are uncertain, are shown with a selection of clear calls. Calls follow the shape of the dose curve; as a rule, active = well fitted inhibition curve with a large enough effect; inconclusive = small, poorly fitted or top-dose-only effect, or effect the other way; inactive = no such curve, though single readings can be large or run the other way. A potency beside an inconclusive call is a rough fit, not a confirmed value.

Protein sequences, listed by entry. Tags and fused reporters are not part of them. Lines headed by an entry give the natural chain unless they say otherwise; changes in a name come on top.
UniProt P51450: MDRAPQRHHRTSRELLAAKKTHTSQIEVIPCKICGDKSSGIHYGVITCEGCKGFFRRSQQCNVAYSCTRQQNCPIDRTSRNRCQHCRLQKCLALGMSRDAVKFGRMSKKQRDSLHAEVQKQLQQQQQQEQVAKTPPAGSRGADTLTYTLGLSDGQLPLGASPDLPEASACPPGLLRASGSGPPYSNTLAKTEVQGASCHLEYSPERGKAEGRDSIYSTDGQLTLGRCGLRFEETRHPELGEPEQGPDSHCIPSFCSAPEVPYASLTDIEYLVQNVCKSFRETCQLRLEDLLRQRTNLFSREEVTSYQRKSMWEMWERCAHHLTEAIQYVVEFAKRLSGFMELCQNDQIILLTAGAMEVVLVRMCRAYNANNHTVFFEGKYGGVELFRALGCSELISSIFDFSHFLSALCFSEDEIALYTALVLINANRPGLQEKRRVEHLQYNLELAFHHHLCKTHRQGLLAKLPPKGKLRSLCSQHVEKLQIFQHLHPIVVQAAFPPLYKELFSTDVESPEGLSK

biological target: Nuclear receptor ROR-gamma (Mus musculus) (UniProt P51450); experiment: qHTS for inhibitors of ROR gamma transcriptional activity; details: Drosophila S2 Gal4-RORgamma UAS-luciferase reporter, 20 h; series mostly up to 53.6 µM; also: nearly all actives have a fitted effect of over 60% in size
How it was run: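 Luciferase reporter read in Schneider cells carrying Gal4-RORγ (mouse) and UAS-Photinus luciferase; cells given compound 1 h before 700 uM copper sulfate induction, then incubated 20 h at ambient temperature.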
Potency is read from the fitted curve at half-maximal effect.

Row | SMILES | Potency
1 | COc1cccc(C(=O)NC(=S)Nc2ccc(Cl)cc2C(=O)O)c1 | active: 10 µM
2 | CC(c1ccccc1)N1C(=O)c2ccc(C(=O)Nc3ccc(Br)cc3C(=O)O)cc2C1=O (stereo not given) | inactive
3 | Cc1ccc(C(=O)CCC2CCCC2=O)cc1 (stereo not given) | inconclusive: 31.6 µM [activator, single point]
4 | CCOc1ccc2c(c1)C(N(CCN1CCOCC1)C(=S)Nc1ccccc1OC)CC(C)(C)O2 (stereo not given) | active: 15.8 µM
5 | COc1ccc(CCNC(=O)C(=O)Nc2nccs2)cc1OC | inactive
6 | Fc1ccc(-c2cnn3c(-c4cccs4)ccnc23)cc1 | inconclusive: 35.5 µM [inhibitor, single point]
7 | CCN1CCN(C(=O)c2cc3c(s2)-c2c(C)cccc2OC3)CC1 | inconclusive: 15.8 µM [inhibitor, partial curve, poor fit]
8 | Cc1cccc(NC(=O)COc2cccc3c2CCN(C)C3=O)c1 | inconclusive: 35.5 µM [activator, single point]
9 | NS(=O)(=O)c1ccc(NC(=S)N2CCN(Cc3ccc(Cl)c(Cl)c3)CC2)cc1 | inconclusive: 31.6 µM [inhibitor, single point]
10 | Cc1nnsc1C(=O)N1CCN(c2cc(C(F)(F)F)ccn2)CC1 | inactive
11 | COc1ccc(-c2nn(-c3ccccc3)cc2/C=C\C(=O)N2CCOCC2)cc1[N+](=O)[O-] | inactive
12 | CCCn1c(=N)n(CC(=O)c2ccc(Cl)c(Cl)c2)c2ccccc21 | inconclusive: 35.5 µM [inhibitor, single point]
13 | CN(C)S(=O)(=O)Oc1cccc(C(=O)Nc2ccc(Cl)cc2)c1 | inconclusive: 12.6 µM [activator, partial curve]
14 | COc1cccc(-c2nccc(N(C)Cc3ccco3)n2)c1 | inconclusive: 12.6 µM [inhibitor, single point]
15 | COCCn1c(C)cc(C(=O)COC(=O)c2ccc[nH]c2=O)c1C | active: 4.47 µM
16 | Cc1[nH][nH]c(=O)c1C(c1c(C)[nH][nH]c1=O)c1cn(Cc2ccccc2Cl)c2ccccc12 | inconclusive: 15.8 µM [activator, single point]
17 | c1ccc(OCCOc2ncnc3sccc23)cc1 | inconclusive: 1 µM [activator, full curve, poor fit]
18 | CCOc1ccc(C(=O)Nc2cccc3ncccc23)cc1Br | inactive
19 | COc1ccc(/C=C2\SC(=S)N(C(C)C(=O)NC3C=CS(=O)(=O)C3)C2=O)cc1 (stereo not given) | inactive
20 | CCN(CC)S(=O)(=O)c1cnccc1N1CCN(c2cccc(Cl)c2)CC1 | inconclusive: 25.1 µM [activator, single point]

Arranged by molar mass (smallest number first): three of the compounds above.
Row | SMILES | Potency
14 | COc1cccc(-c2nccc(N(C)Cc3ccco3)n2)c1 | inconclusive: 12.6 µM [inhibitor, single point]
19 | COc1ccc(/C=C2\SC(=S)N(C(C)C(=O)NC3C=CS(=O)(=O)C3)C2=O)cc1 (stereo not given) | inactive
2 | CC(c1ccccc1)N1C(=O)c2ccc(C(=O)Nc3ccc(Br)cc3C(=O)O)cc2C1=O (stereo not given) | inactive
